Test results published in the supplement of paper PMC4635364.
Structures can show the parent of a compound that is named as a salt. The list shows a part of the results. Repeats in this data set agree poorly, so a single value says little.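 Human fetal ventral-midbrain neural progenitor line ReNCell VM, differentiated without mitogens. Images stained for doublecortin (early neurons) or tyrosine hydroxylase (dopaminergic neurons) were scored by blinded raters against untreated wells (0 = no change). Repeats and both raters were averaged, and compounds averaging 2 or higher were picked as hits for retesting.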

Columns and labels:
ReNCell VM [1] = assay: neuronal differentiation score (DCX+ cell fraction vs untreated, manual image score) (score (-3 to 3)); higher = more neuronal differentiation; conditions: 2 uM, 2 weeks
ReNCell VM [2] = assay: dopaminergic neuron differentiation score (TH+ cell fraction vs untreated, manual image score) (score (0 to 3)); higher = more TH+ dopaminergic neuron differentiation; conditions: 2 uM, 4 weeks, BDNF 10 ng/ml + GDNF 10 ng/ml

SMILES: S=C1SCN(Cc2ccccc2)CN1Cc1ccccc1
- neuronal differentiation score (ReNCell VM [1]; library: Spectrum): inactive: 0
- dopaminergic neuron differentiation score (ReNCell VM [2]; library: Spectrum): inactive: 0

SMILES: c1ccc([C@H]2CN3CCSC3=N2)cc1
- neuronal differentiation score (ReNCell VM [1]; library: Spectrum): inactive: 0
- dopaminergic neuron differentiation score (ReNCell VM [2]; library: Spectrum): inactive: 0

SMILES: Clc1cccc2c1CN(C1=NCCN1)C2
- neuronal differentiation score (ReNCell VM [1]; library: Tocriscreen): inactive: 0
- dopaminergic neuron differentiation score (ReNCell VM [2]; library: Tocriscreen): inactive: 0

SMILES: Clc1ccc(CSC(Cn2ccnc2)c2ccc(Cl)cc2Cl)cc1 (centres undefined) [Sulconazole nitrate]
- neuronal differentiation score (ReNCell VM [1]; library: Prestwick): inactive: 0
- dopaminergic neuron differentiation score (ReNCell VM [2]; library: Prestwick): active: 3

SMILES: CCN(CC)CCN[C@@H](C(=O)OCCC(C)C)c1ccccc1 [Camylofine chlorhydrate]
- neuronal differentiation score (ReNCell VM [1]; library: Prestwick): inactive: 0
- dopaminergic neuron differentiation score (ReNCell VM [2]; library: Prestwick): inactive: 0

SMILES: C[C@]12CCC(=O)C=C1CC[C@@H]1[C@@H]2[C@@H](O)C[C@@]2(C)[C@H]1CC[C@]2(O)C(=O)COP(=O)(O)O
- neuronal differentiation score (ReNCell VM [1]; library: Spectrum): inactive: 0
- dopaminergic neuron differentiation score (ReNCell VM [2]; library: Spectrum): inactive: 0

SMILES: CCCCC(CC)COC(=O)CC(C(=O)OCC(CC)CCCC)S(=O)(=O)O (centres undefined)
- neuronal differentiation score (ReNCell VM [1]; library: Spectrum): inactive: 0
- dopaminergic neuron differentiation score (ReNCell VM [2]; library: Spectrum): inactive: 0

SMILES: COC(=O)/C(=C1/OC(=O)C(c2ccccc2)=C1O)c1ccccc1 [vulpinic acid]
- neuronal differentiation score (ReNCell VM [1]; library: Natural): inactive: 0
- dopaminergic neuron differentiation score (ReNCell VM [2]; library: Natural): inactive: 0

SMILES: CC[N+](C)(CC)CCOC(=O)C1c2ccccc2Oc2ccccc21 [Methantheline bromide]
- neuronal differentiation score (ReNCell VM [1]; library: Prestwick): inactive: 0
- dopaminergic neuron differentiation score (ReNCell VM [2]; library: Prestwick): inactive: 1

SMILES: NC(=O)NS(=O)(=O)c1ccc(N)cc1
- neuronal differentiation score (ReNCell VM [1]; library: Spectrum): inactive: 0
- dopaminergic neuron differentiation score (ReNCell VM [2]; library: Spectrum): inactive: 0

SMILES: CO/N=C(\C(=O)N[C@@H]1C(=O)N2C(C(=O)O)=C(C[N+]3(C)CCCC3)CS[C@H]12)c1csc(N)n1 [Cefepime hydrochloride]
- neuronal differentiation score (ReNCell VM [1]; library: Prestwick): inactive: 0
- dopaminergic neuron differentiation score (ReNCell VM [2]; library: Prestwick): inactive: 0

SMILES: CC1=C(C/C=C(\C)CCC[C@H](C)CCC[C@H](C)CCCC(C)C)C(=O)c2ccccc2C1=O
- neuronal differentiation score (ReNCell VM [1]; library: Spectrum): inactive: 0
- dopaminergic neuron differentiation score (ReNCell VM [2]; library: Spectrum): inactive: 0
